In publication PMC8961175:
No constants are given. Whether binding was seen depends on the method and setting. Binding seen in cells or lysates may run through a third protein. Some results given as binding are weak or reduced against the parent protein; the word gives no strength. For some of these results: Sequences can lack the tags named with a protein. Blank lines part the entries; values can stand above or below the molecule they belong to.

The chains behind the UniProt entries cited, without tags or fusion partners. Residues count along the entry.
UniProt Q9NZQ7, residues 19-290: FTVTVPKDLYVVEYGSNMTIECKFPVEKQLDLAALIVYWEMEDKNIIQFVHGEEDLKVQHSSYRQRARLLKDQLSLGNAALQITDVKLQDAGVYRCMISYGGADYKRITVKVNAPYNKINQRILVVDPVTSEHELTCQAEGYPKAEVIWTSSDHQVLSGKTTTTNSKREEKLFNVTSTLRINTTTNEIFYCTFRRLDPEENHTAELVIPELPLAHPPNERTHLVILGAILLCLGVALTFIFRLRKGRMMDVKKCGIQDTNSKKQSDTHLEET
UniProt P49841: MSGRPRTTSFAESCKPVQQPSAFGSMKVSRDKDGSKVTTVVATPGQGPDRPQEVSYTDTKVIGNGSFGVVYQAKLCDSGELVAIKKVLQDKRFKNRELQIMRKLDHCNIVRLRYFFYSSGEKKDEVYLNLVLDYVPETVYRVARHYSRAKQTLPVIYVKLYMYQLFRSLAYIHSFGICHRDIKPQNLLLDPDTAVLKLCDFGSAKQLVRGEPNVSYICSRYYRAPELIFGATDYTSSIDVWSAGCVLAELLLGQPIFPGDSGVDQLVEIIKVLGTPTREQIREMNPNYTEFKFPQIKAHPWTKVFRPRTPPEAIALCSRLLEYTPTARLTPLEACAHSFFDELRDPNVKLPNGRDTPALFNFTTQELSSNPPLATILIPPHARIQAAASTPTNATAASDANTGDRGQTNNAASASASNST

How the values were obtained:
[1] = molecular target: T1, purified recombinant GST-eEF2K (UniProt O00418); experiment: pull-down; purified GST or GST-eEF2K from bacteria on glutathione-sepharose 4B beads, incubated with GSK3β for 4 hours at 4°C; washed four times with GST binding buffer; blot
T1 sequence: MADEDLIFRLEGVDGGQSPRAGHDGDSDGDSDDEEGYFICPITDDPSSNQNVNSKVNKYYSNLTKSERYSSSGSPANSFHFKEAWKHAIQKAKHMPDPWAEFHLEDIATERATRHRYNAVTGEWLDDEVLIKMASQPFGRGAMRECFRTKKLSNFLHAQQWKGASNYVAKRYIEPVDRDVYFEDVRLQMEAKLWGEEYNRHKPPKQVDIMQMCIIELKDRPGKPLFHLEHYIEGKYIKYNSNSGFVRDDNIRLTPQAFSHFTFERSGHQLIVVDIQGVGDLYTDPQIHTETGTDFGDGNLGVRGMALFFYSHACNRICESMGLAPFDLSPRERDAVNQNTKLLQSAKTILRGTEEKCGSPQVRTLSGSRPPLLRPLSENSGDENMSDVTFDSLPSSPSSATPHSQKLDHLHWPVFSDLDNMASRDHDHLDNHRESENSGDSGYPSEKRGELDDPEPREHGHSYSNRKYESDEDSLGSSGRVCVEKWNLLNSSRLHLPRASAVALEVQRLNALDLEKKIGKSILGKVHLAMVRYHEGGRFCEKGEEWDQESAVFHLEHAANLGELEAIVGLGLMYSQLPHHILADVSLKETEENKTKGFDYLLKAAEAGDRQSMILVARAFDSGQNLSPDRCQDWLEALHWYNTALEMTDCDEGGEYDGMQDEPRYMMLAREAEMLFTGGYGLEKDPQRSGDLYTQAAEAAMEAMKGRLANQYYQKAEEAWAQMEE

[2] = molecular target: T2, Flag-eEF2K (eukaryotic elongation factor 2 kinase) (UniProt O00418); experiment: co-IP; HEK293T cells transfected with Flag-eEF2K and HA-GSK3β plasmids; immunoprecipitation with anti-Flag or anti-HA antibodies, then blot; RIPA buffer, 4°C overnight
T2 sequence: T1 sequence

[3] = molecular target: T3, eukaryotic elongation factor 2 kinase (eEF2K), endogenous in A375 cells (human (endogenous in A375)) (UniProt O00418); experiment: co-IP; endogenous proteins in A375 cells; immunoprecipitation with the indicated antibodies, then blot; RIPA buffer, 4°C overnight
T3 sequence: T1 sequence

[4] = molecular target: HA-PD-L1 (programmed death ligand-1) (UniProt Q9NZQ7); experiment: co-IP; cell lysate precipitated with antibody against HA, blotted for eEF2K (Figure S2); RIPA lysis buffer, protein A/G agarose, 4°C overnight

binding [1]: binds
Molecule: GSK3β used in the GST pulldown assay (from UniProt P49841 1-420) (enzyme)

binding [2]: binds
Molecule: HA-GSK3β (glycogen synthase kinase 3 beta) (from UniProt P49841 1-420) (enzyme)

binding [3]: binds
Molecule: glycogen synthase kinase 3 beta (GSK3β), endogenous in A375 cells (from UniProt P49841 1-420) (enzyme)

B1: eEF2K tested for co-precipitation with HA-PD-L1 (Figure S2) (enzyme, UniProt O00418 1-725)
chain: T1 sequence
binding [4]: no binding
